# Results published in patent publication US20230314435A1, “MARKER OF CALCIUM-OVERLOAD-MEDIATED NEURONAL DEATH AND APPLICATION THEREOF” (Capital Medical University, priority 2022, published 2023).
# For at least one compound, name, drawing or mass did not settle the structure.
# Tested on: retinal ganglion layer neurons
# Experiment: Acute intraocular-hypertension glaucoma model
# Type: in vivo
# Conditions: mouse, intraperitoneal injection once a day, high dose 30 mg/kg, retina after 48 hours
structure (smiles),measurement,value
"O=c1[nH]c2ccccc2n1C1CCN(CCCC(c2ccc(F)cc2)c2ccc(F)cc2)CC1 [PMZ, Pimozide]",number of neurons of the retinal ganglion layer (Nissl staining),had a protection function
